# Data as given in PubChem BioAssay AID1259282 (Sanger Institute, 2017)
# Assay: 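Kinases whose loss reduces viability on their own or with anchor drugs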 (primary screen)
# System: DIFI human colorectal cancer cell line
# Knock-down reagent: siRNA pool against human genes
# Challenge: anchor drug at a mild dose (BYL719 1 µM, cetuximab 5 µg/ml, trametinib 10 nM) or DMSO vehicle; exposure time not given
# Detection: 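Robust z-score and replicate-mean viability versus non-targeting pool without drug, plus a synergy score for each low-dose anchor drug (BYL719, cetuximab, trametinib)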
# Scale: robust z-score, knock-down alone: higher = more viable cells than typical knock-down; viability, knock-down alone: higher = more viable cells; synergy score with trametinib and synergy score with cetuximab and synergy score with BYL719: higher = stronger combined killing with drug
# Active means: 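a knock-down is called essential if its DMSO robust z-score is under -3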
# Calls: active = essential (knock-down alone, z below -3); inactive = not essential
# This is an unselected part of 794 deposited reagents. In the full data, 11 (1.4%) got an active call. 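Calls flag knock-downs that lower viability without drug; drug synergy appears only in the synergy scores; exposure time not stated.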 Viability is capped at 1. Not stated in the record: the amount of reagent, the time to read-out.
Target gene,"robust z-score, knock-down alone","viability, knock-down alone (fraction of control)",synergy score with trametinib,synergy score with cetuximab,synergy score with BYL719,outcome
BRSK2 (BR serine/threonine kinase 2),0.632,0.988,0.0488,0.0344,-0.106,inactive
IGF1R (insulin like growth factor 1 receptor),0.715,1,-0.00676,0.082,0.0861,inactive
CAMK1 (calcium/calmodulin dependent protein kinase I),0.382,0.952,-0.0555,-0.0283,-0.0473,inactive
BRWD1 (bromodomain and WD repeat domain containing 1),0.116,0.913,-0.00586,0.00447,0.0389,inactive
PIK3CB,0.263,0.934,-0.0314,-0.0438,0.119,inactive
PIK3CA,-0.662,0.8,0.146,0.0339,-0.209,inactive
CDK17 (cyclin dependent kinase 17),0.182,0.923,-0.15,-0.136,-0.0949,inactive
MAP4K5 (mitogen-activated protein kinase kinase kinase kinase 5),0.542,0.975,0.195,0.119,-0.197,inactive
"ABL1 (ABL proto-oncogene 1, non-receptor tyrosine kinase)",0.226,0.929,-0.0557,0.000892,-0.19,inactive
JAK3 (Janus kinase 3),0.715,1,0.0281,0.109,-0.18,inactive
MGA (MAX dimerization protein MGA),-1.33,0.702,0.0407,-0.026,0.0349,inactive
PDK4 (pyruvate dehydrogenase kinase 4),0.715,1,0.0676,0.0073,0.123,inactive
CDK19 (cyclin dependent kinase 19),0.0852,0.909,0.0903,-0.0123,0.0882,inactive
CTNNB1 (catenin beta 1),0.715,1,-0.0136,-0.239,-0.121,inactive
MAPK3 (mitogen-activated protein kinase 3),-1.2,0.722,0.173,0.0579,-0.12,inactive
NUP62 (nucleoporin 62),0.715,1,0.308,0.178,-0.259,inactive
PAPSS2 (3'-phosphoadenosine 5'-phosphosulfate synthase 2),0.715,1,0.175,0.156,0.0377,inactive
PXK (PX domain containing serine/threonine kinase like),-0.447,0.831,-0.0219,-0.0777,0.0538,inactive
IRAK4 (interleukin 1 receptor associated kinase 4),0.715,1,0.0888,0.0843,-0.00334,inactive
CRIM1 (cysteine rich transmembrane BMP regulator 1),-1.18,0.725,0.257,0.0386,0.0812,inactive
TRIB2 (tribbles pseudokinase 2),-4.05,0.308,-0.0141,-0.00684,-0.105,active
CHKA (choline kinase alpha),-0.203,0.867,0.207,0.0982,0.0748,inactive
CDC42BPG (CDC42 binding protein kinase gamma),0.715,1,-0.0788,-0.0608,-0.236,inactive
EPHB6 (EPH receptor B6),-0.0425,0.89,0.00796,-0.129,-0.284,inactive
WHR1 (winged helix repair factor 1),0.715,1,-0.0445,0.026,-0.362,inactive
FN3KRP (fructosamine 3 kinase related protein),-1.12,0.733,0.16,0.0791,0.131,inactive
DGKB (diacylglycerol kinase beta),-0.745,0.788,0.184,0.0571,-0.0772,inactive
KCNH2 (potassium voltage-gated channel subfamily H member 2),0.715,1,0.258,0.135,0.12,inactive
NME3 (NME/NM23 nucleoside diphosphate kinase 3),0.715,1,0.118,0.109,0.0281,inactive
PHKA2 (phosphorylase kinase regulatory subunit alpha 2),-0.97,0.755,0.0656,0.00673,-0.272,inactive
NEK7 (NIMA related kinase 7),0.715,1,-0.0766,-0.188,-0.362,inactive
RIOK1 (RIO kinase 1),-0.851,0.773,-0.0213,-0.000645,-0.113,inactive
"GUCY2D (guanylate cyclase 2D, retinal)",-1.29,0.709,0.13,0.109,0.0268,inactive
ETNK1 (ethanolamine kinase 1),0.715,1,-0.00562,-0.00354,-0.215,inactive
"RELA (RELA proto-oncogene, NF-kB subunit)",0.715,1,0.291,0.146,0.125,inactive
PSKH1 (protein serine kinase H1),0.715,1,-0.0717,-0.0758,-0.176,inactive
TWF2 (twinfilin actin binding protein 2),-1.42,0.689,0.187,0.0978,-0.0738,inactive
PRKCB (protein kinase C beta),0.12,0.914,0.13,0.0946,0.0419,inactive
MYLK3 (myosin light chain kinase 3),-0.549,0.816,0.088,0.0068,-0.0921,inactive
GRK2 (G protein-coupled receptor kinase 2),0.338,0.945,0.103,0.0028,-0.055,inactive
PLK1 (polo like kinase 1),-2.96,0.466,0.0223,0.00312,-0.0273,inactive
PTPN11 (protein tyrosine phosphatase non-receptor type 11),-1.94,0.614,0.0104,-0.0985,-0.0924,inactive
PRKCG (protein kinase C gamma),0.715,1,-0.053,0.0342,-0.239,inactive
MAPK1 (mitogen-activated protein kinase 1),-0.154,0.874,0.104,0.00315,-0.0884,inactive
PDGFRA (platelet derived growth factor receptor alpha),0.715,1,0.0023,0.0711,-0.126,inactive
EPHB3 (EPH receptor B3),-2.45,0.54,0.176,0.0724,0.0144,inactive
HSPB8 (heat shock protein family B (small) member 8),-0.215,0.865,0.251,-0.0145,0.0182,inactive
MAP3K20 (mitogen-activated protein kinase kinase kinase 20),0.715,1,0.0263,-0.103,-0.179,inactive
"MET (MET proto-oncogene, receptor tyrosine kinase)",-1.4,0.693,-0.00714,-0.00141,0.00646,inactive
IP6K3 (inositol hexakisphosphate kinase 3),-1.15,0.728,0.0154,0.0821,0.177,inactive
ACVR1C (activin A receptor type 1C),0.715,1,0.05,0.122,-0.132,inactive
VRK2 (VRK serine/threonine kinase 2),-0.789,0.782,0.137,0.0724,0.169,inactive
NME1 (NME/NM23 nucleoside diphosphate kinase 1),0.715,1,-0.14,-0.0373,-0.129,inactive
"FES (FES proto-oncogene, tyrosine kinase)",-1.23,0.718,-0.0239,-0.231,-0.115,inactive
XYLB (xylulokinase),0.715,1,-0.0359,-0.0843,-0.164,inactive
LTK (leukocyte receptor tyrosine kinase),0.715,1,0.121,-0.0152,-0.28,inactive
CKB (creatine kinase B),0.715,1,-0.111,-0.0456,-0.362,inactive
MAPKAPK5 (MAPK activated protein kinase 5),0.715,1,0.0549,-0.173,-0.0223,inactive
KSR2 (kinase suppressor of ras 2),0.715,1,0.0913,-0.0274,-0.209,inactive
CAMKK1 (calcium/calmodulin dependent protein kinase kinase 1),0.715,1,-0.0516,0.0189,-0.273,inactive
ATRX (ATRX chromatin remodeler),0.715,1,-0.204,-0.195,-0.242,inactive
FER (FER tyrosine kinase),0.715,1,0.002,-0.0655,-0.244,inactive
FOXP1 (forkhead box P1),-0.858,0.772,0.0311,0.133,-0.19,inactive
